Results taken from patent US20210261690A9, “Method of Generating Anti-Linaclotide Antibodies and Uses Thereof” (Ironwood Pharmaceuticals, Inc., priority 2018, published 2021).
Some results were stated once for a whole list of compounds, not compound by compound.

Test system: rabbit anti-linaclotide antibody
Assay: Electrochemiluminescence bridging assay, specificity (cross-reactivity)
Format: binding
Settings: 10 μg/mL peptide, antibody at HPC and screening LPC
Description: The electrochemiluminescence assay was used as a validation of a method to detect anti-linaclotide antibodies in human serum using a MSD electrochemiluminescence protocol. Low positive control (LPC), high positive control (HPC), relative light units (RLU), coefficient of variation (CV) and confirmation cut points were determined using MSD procedures. The positive control antibodies used were the antibodies harvested from protocol 2.
The assay is an immunogenicity bridging-based assay developed on MesoScale Discovery Electrochemiluminescence (ECL) technology. […] The captured immune complex is then detected by electrochemiluminescence generated by the sulfotag-labeled linaclotide portion of the immune complex. The signal generated by the sample is then compared to a pre-determined screening cut point to determine if the sample is positive for the presence of anti-linaclotide antibodies. Samples that are determined to be positive are subjected to a second immunogenicity confirmation assay which is performed by mixing a biotinylated-linaclotide analog, a sulfotag-labeled linaclotide analog, the clinical sample, and unlabeled linaclotide together in a multi-well plate. […] The captured immune complex is then detected by electrochemiluminescence generated by the sulfotag-labeled linaclotide portion of the immune complex. […]

Substance | inhibition values for each of the individuals [%]
NNDC1 ELC2 VAVAC1 TGC2 L (NNDCELCVAVACTGCL; cyclised or stapled) [Uroguanylin, endogenous hormone] | < 20
PGTC1 EIC2 AYAAC1 TGC2 (PGTCEICAYAACTGC; cyclised or stapled) [Guanylin, endogenous hormone] | < 20
